# Source: US20250288577A1, “METHODS OF TREATING A VIRUS INFECTION AND METHODS OF INHIBITING VIRAL REPLICATION” (CORNELL UNIVERSITY, priority 2022, published 2025)
# At least one structure is not confirmed: it was looked up by name or label, or the drawing left a doubt.
# Legend:
# FIPV 1 Black = type: cell-based, feline Coronavirus
# GLS = GLS expression in HCoV-OC43 infected HBECs (Western blot); type: cell-based, human; conditions: HBECs infected with HCoV-OC43, 1 h plus 23 h
SMILES,Viral titer (FIPV 1 Black),GLS protein expression in virus-infected host cells (GLS)
N#C[C@@]1(c2ccc3c(N)ncnn23)O[C@H](CO)[C@@H](O)[C@H]1O [GS],9 × 10^4 pfu/ml,
Oc1c2ccccc2c2c3c(cccc13)N=N2 [SP600125],,reduced
